Values of other authors in patent publication US7354955B2, “(2S)-amino(phenyl)acetic acid and derivatives as α2δ voltage-gated calcium channel ligands” (Abbott Laboratories, priority 2004, dated 2008).
At least one structure is not confirmed: it was looked up by name or label, or the drawing left a doubt.

System: gabapentin binding site
Details: anti-convulsant drugs; background statement; cited from earlier work

Structure (SMILES): CCCC(CCC)C(=O)O [valproate]
- competition for gabapentin binding: do not compete
